Literature values as cited in patent US20170363612A1, “COMPOSITIONS AND METHODS RELATING TO PROLIFERATIVE DISORDERS” (Wayne State University, priority 2014, published 2017).

Conditions: cited from earlier work

CC(=O)O[C@H]1C(=O)[C@@]2(C)[C@H]([C@H](OC(=O)c3ccccc3)[C@]3(O)C[C@H](OC(=O)[C@H](O)[C@@H](NC(=O)c4ccccc4)c4ccccc4)C(C)=C1C3(C)C)[C@]1(OC(C)=O)CO[C@@H]1C[C@@H]2O [Paclitaxel, 5β,20-epoxy-1,2α,4,7β,10β,13α-hexahydroxytax-1-1-en-9-14,10-diacetate 2-benzoate 13-ester with (2R,3S)-N-benzoyl-3-phenylisoserine]
solubility in water: less than 0.01 mg/ml
